From the supplement of paper PMC10849652
The list shows a part of the results.

Chains of the proteins cited; added tags and fusions are not shown. Lines headed by an entry give the natural chain unless they say otherwise; changes in a name come on top.
UniProt Q92997: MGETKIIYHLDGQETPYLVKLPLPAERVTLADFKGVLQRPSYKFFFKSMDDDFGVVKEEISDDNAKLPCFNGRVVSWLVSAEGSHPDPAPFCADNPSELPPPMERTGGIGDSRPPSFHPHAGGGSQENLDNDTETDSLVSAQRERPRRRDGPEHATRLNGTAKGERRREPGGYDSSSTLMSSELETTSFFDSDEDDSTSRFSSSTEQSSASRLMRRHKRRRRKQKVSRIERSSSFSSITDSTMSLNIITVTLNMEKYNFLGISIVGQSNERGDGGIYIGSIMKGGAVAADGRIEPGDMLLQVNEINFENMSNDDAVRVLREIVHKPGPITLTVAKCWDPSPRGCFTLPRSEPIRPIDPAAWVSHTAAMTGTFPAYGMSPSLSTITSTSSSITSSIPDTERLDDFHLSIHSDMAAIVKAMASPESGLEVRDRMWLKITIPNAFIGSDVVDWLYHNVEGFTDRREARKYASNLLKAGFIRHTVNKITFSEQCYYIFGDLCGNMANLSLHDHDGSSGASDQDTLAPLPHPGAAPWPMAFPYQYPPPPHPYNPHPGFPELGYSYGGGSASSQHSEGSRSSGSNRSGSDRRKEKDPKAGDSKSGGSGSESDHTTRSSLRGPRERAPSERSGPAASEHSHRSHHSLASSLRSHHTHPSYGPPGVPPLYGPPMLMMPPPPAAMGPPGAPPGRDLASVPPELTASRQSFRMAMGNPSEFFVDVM
UniProt Q7L8W6: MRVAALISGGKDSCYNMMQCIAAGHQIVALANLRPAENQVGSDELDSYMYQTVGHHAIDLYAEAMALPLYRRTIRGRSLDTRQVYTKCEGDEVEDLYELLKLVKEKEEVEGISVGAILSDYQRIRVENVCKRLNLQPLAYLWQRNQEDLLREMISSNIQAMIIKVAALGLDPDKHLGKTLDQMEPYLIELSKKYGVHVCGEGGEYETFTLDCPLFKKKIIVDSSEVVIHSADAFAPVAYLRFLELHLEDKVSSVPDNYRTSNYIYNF
UniProt Q8NBA8: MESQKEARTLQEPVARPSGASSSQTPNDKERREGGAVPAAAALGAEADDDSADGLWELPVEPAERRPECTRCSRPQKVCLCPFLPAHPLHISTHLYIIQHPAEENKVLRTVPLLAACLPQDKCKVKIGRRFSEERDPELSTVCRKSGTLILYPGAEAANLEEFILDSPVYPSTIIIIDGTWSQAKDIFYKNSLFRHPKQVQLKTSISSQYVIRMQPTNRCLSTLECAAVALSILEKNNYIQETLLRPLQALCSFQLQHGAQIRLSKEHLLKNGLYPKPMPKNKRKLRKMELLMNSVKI
UniProt Q15075: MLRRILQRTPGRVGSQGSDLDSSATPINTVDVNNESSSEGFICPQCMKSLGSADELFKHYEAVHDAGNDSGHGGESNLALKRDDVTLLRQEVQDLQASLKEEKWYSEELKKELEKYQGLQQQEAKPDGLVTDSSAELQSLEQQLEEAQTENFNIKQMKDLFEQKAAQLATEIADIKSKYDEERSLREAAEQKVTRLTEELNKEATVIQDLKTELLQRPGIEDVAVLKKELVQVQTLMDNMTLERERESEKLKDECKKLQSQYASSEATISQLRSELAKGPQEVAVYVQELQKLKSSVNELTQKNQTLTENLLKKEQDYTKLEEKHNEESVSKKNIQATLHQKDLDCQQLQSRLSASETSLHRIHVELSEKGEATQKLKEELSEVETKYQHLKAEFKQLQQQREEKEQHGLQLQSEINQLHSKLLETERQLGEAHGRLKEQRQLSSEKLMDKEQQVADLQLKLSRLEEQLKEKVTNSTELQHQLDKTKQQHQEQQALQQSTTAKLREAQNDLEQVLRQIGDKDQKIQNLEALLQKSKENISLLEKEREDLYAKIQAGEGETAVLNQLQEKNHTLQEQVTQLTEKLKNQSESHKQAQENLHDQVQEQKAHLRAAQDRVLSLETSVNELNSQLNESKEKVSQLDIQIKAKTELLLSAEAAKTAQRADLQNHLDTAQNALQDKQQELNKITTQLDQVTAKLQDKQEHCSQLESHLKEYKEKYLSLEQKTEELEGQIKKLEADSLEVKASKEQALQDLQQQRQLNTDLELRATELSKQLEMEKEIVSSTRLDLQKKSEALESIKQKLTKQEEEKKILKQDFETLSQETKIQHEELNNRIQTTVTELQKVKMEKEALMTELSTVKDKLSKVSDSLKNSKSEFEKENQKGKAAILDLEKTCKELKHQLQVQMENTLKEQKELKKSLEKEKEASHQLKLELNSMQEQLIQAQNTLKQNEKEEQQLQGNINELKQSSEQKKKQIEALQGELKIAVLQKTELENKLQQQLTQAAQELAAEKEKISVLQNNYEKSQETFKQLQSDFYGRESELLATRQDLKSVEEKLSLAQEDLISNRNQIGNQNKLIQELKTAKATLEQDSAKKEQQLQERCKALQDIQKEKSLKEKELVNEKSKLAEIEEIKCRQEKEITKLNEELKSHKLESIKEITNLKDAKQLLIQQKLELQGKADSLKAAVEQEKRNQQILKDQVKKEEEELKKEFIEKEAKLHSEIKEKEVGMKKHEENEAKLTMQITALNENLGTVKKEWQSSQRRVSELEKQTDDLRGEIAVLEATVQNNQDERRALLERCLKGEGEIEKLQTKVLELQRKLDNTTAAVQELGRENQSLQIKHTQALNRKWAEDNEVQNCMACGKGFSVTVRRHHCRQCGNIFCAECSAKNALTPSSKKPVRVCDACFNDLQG
UniProt Q9BY44: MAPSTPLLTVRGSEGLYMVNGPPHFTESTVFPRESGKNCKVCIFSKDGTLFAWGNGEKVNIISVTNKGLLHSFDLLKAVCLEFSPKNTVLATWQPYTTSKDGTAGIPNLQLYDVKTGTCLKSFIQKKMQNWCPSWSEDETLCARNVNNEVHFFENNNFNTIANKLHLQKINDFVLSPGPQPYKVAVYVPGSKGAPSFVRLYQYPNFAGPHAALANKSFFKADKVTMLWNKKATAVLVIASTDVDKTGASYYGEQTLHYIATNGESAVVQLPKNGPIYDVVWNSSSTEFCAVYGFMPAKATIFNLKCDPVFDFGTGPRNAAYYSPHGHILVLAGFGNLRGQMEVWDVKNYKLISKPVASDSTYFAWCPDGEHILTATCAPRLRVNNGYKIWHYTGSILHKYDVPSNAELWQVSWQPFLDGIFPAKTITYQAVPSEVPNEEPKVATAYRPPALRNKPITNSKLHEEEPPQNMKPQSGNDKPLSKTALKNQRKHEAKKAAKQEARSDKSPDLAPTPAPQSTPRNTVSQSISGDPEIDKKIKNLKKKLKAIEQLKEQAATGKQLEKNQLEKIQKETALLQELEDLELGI
UniProt O95905: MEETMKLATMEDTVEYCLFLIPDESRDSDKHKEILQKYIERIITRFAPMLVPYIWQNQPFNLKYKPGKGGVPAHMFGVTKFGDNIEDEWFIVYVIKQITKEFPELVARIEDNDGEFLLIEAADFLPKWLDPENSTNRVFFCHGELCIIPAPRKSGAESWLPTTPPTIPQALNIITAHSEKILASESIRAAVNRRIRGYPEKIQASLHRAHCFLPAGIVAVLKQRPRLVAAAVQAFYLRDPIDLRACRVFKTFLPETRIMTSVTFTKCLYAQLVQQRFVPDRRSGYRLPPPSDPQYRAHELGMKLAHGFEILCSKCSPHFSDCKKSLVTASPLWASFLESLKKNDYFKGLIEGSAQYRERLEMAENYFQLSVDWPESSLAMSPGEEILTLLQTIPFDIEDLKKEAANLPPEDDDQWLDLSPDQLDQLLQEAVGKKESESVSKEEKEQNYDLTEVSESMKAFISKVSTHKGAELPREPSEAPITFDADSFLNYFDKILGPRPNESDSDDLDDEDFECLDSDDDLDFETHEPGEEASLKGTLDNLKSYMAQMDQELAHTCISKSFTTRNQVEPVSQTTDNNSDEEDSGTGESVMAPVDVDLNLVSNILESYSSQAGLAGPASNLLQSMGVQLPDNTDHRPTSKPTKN
UniProt Q9GZT9: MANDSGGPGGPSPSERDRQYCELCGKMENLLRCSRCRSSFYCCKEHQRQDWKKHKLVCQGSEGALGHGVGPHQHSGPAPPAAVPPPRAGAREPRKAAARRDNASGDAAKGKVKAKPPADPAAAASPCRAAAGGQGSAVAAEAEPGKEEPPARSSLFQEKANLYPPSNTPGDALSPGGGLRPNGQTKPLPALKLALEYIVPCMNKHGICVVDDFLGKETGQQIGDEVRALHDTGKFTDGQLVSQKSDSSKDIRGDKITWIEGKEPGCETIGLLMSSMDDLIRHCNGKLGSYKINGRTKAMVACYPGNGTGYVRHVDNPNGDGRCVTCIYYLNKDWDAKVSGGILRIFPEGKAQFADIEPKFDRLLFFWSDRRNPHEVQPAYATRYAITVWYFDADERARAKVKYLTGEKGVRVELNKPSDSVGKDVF
EEF1AKMT2, A0A494BZY7, UniProt A0A494BZY7, whole entry, looked up: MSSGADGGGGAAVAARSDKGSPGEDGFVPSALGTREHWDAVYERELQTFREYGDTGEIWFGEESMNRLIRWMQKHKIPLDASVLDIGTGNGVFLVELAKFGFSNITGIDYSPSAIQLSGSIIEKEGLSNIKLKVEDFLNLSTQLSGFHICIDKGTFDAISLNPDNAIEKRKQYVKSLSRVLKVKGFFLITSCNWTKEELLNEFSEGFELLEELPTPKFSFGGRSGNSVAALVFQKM
UniProt P63167, whole entry, looked up: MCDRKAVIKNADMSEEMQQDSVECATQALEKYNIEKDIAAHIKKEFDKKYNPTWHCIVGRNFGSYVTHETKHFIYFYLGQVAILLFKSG
UniProt O00559: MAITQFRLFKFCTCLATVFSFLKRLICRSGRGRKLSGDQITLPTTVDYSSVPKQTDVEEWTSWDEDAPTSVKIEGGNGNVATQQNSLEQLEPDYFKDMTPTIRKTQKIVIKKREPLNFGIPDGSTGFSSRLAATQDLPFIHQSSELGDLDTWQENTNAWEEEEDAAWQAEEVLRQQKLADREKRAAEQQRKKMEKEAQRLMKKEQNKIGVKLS
UniProt Q96F86: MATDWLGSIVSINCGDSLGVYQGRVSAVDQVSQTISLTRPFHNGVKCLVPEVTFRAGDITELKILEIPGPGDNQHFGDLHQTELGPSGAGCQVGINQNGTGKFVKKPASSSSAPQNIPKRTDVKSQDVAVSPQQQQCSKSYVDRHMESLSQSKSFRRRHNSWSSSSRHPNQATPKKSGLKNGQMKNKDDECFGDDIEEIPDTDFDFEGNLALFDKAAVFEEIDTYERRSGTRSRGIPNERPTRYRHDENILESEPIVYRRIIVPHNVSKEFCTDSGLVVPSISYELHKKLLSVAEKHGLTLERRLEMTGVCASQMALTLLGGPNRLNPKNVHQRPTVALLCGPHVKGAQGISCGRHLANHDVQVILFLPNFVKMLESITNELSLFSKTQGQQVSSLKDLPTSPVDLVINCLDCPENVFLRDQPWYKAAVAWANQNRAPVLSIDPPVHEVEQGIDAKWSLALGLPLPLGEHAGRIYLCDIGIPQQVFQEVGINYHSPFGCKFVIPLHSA
UniProt Q9H410: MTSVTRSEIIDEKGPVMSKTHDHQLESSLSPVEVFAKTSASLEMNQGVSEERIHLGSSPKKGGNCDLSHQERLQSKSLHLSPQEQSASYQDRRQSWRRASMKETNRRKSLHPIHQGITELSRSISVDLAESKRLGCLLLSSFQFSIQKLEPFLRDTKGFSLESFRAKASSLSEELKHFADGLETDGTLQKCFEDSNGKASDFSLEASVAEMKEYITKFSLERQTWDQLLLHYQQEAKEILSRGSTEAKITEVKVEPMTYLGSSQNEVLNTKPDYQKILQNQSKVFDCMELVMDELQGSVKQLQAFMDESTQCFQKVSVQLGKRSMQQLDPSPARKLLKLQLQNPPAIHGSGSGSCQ
UniProt Q13409, whole entry, looked up: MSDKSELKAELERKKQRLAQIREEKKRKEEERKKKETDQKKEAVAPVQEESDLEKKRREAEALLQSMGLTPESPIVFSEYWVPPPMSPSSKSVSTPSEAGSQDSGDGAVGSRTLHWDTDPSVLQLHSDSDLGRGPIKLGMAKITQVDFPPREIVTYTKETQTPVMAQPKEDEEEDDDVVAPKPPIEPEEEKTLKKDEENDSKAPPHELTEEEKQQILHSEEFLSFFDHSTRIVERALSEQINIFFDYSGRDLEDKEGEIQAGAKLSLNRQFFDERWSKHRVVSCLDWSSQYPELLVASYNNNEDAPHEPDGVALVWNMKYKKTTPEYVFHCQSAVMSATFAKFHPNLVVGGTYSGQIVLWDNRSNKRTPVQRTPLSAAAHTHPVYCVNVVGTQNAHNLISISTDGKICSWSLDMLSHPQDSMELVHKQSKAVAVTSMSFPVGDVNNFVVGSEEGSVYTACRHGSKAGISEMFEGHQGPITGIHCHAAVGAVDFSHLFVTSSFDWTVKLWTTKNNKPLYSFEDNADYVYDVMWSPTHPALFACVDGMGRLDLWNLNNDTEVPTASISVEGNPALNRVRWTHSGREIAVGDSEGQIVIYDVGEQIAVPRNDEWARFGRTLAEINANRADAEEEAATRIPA
UniProt Q96FX2: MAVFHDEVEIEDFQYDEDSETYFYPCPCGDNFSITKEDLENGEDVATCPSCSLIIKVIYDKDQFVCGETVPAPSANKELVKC

What was measured:
Assay in all cases: log2 fold change, soluble protein after heating vs DMSO (PISA); higher = thermal stabilisation; K562 lysate, 10 uM; active = over 0.2 and 3.5 SD of the protein, either way, in both replicates (recomputed)
[1] = compound: C=CC(=O)N1CCC[C@@H](n2nc(-c3ccc(Oc4ccccc4)cc3)c3c(N)ncnc32)C1 [ibrutinib]
In short: (§1)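 To prepare the extract, K562 pellets were dounce-homogenised in PBS pH 7.4 with 1 mM MgCl2, giving crude material at 1 mg/mL protein. This was treated with 10 μM compound for 30 min, then heated in aliquots for 3 min over 48°C-58°C before pooling and addition of NP-40 to 0.5% at 4°C. Centrifugation at 21,000xg for 90 min left soluble protein in the supernatant, which TMTpro 16plex LC-MS/MS quantified with equalised channel sums. Results are log-two fold changes in thermal stability compared with solvent controls, from duplicates.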

[2] = compound: CC(=O)c1cnc2ccc(-c3cc(Cl)c(O)c(Cl)c3)nc2c1N[C@H]1CC[C@H](CN(C)C)CC1
In short: as §1

[3] = compound: CC(C)(C)Cn1c(N)nc2ccc(-c3[nH]c(C(C)(C)C)nc3-c3ccc(F)cc3)nc21 [ralimetinib]
In short: as §1

[4] = compound: CC(C)(O)CC(=O)NCCn1ccc2ncnc(Nc3ccc(Oc4cccc(C(F)(F)F)c4)c(Cl)c3)c21
In short: as §1

[5] = compound: CC(C)C1=C2N=C(C=C(N2N=C1)NCC3=CC=CC=C3)NCCCCCCN
In short: as §1

[6] = compound: CC1=C(C(CC(=O)N1)C2=CC=C(C=C2)C(F)(F)F)C(=O)NC3=C(C=C4C(=C3)C=NN4)F
In short: as §1

[7] = compound: CC1=C(C2=C(C=C1)C(=O)C3=CC=CC=C3N2CCCN)C
In short: as §1

[8] = compound: CC1=C(C=C(C=C1)NC(=O)C2=CC(=CC=C2)C(C)(C)C#N)NC3=CC4=C(C=C3)N=CN(C4=O)C
In short: as §1

[9] = compound: CC1=C(C=C(C=C1)NC(=O)C2=CC(=CC=C2)N(C)C)NC(=O)C3=CC=C(C=C3)O
In short: as §1

[10] = compound: CC1=CC=C(C=C1)SC2=C3C=C(SC3=CN=C2)C(=O)N
In short: as §1

Row | Target | log2 fold change [1] | log2 fold change [2] | log2 fold change [3] | log2 fold change [4] | log2 fold change [5] | log2 fold change [6] | log2 fold change [7] | log2 fold change [8] | log2 fold change [9] | log2 fold change [10]
1 | EDEM1 (UniProt Q92611) | inactive: 0.025 | inactive: 0.019 | inactive: 0.081 | inactive: -0.121 | inactive: -0.074 | inactive: -0.042 | inactive: -0.032 | inactive: 0.022 | inactive: 0.115 | inactive: 0.01
2 | DVL3 (UniProt Q92997) | inactive: -0.02 | inactive: 0.116 | inactive: 0.006 | inactive: 0.03 | inactive: 0.042 | inactive: -0.003 | – | inactive: -0.078 | inactive: 0.059 | inactive: 0.084
3 | EEFSEC (UniProt P57772) | inactive: 0.031 | inactive: -0.03 | inactive: 0.019 | inactive: -0.013 | inactive: -0.025 | inactive: -0.011 | inactive: 0.005 | inactive: 0.011 | inactive: 0.039 | inactive: 0.006
4 | DTWD1 (UniProt Q8N5C7) | inactive: 0.013 | inactive: 0.032 | inactive: 0.005 | inactive: 0.005 | inactive: 0.034 | inactive: 0.058 | inactive: -0.019 | inactive: 0 | inactive: -0.02 | inactive: -0.027
5 | DROSHA (UniProt Q9NRR4) | inactive: -0.079 | inactive: 0.036 | inactive: -0.017 | inactive: -0.002 | inactive: 0.073 | inactive: 0 | inactive: -0.035 | inactive: -0.143 | inactive: 0.107 | inactive: 0.017
6 | EEF1A1, A0A087WVQ9 | inactive: 0.085 | inactive: 0.019 | inactive: -0.006 | inactive: 0.019 | inactive: -0.007 | inactive: 0.091 | inactive: 0 | inactive: -0.023 | inactive: -0.006 | inactive: 0.004
7 | EHMT2 (UniProt A2ABF8) | inactive: 0.054 | inactive: 0.002 | inactive: 0.011 | inactive: -0.019 | inactive: -0.009 | inactive: 0.01 | inactive: -0.008 | inactive: 0.004 | inactive: -0.012 | inactive: 0.006
8 | EEF1AKMT1 (UniProt Q8WVE0) | inactive: 0.09 | inactive: -0.162 | inactive: 0.048 | inactive: -0.079 | inactive: 0.042 | inactive: -0.068 | inactive: -0.061 | inactive: 0.067 | inactive: 0.022 | inactive: -0.067
9 | EFR3A (UniProt Q14156) | inactive: 0.146 | inactive: 0.117 | inactive: -0.007 | inactive: -0.021 | inactive: 0.003 | inactive: -0.109 | inactive: 0.025 | – | inactive: -0.03 | inactive: 0.016
10 | DPH6 (UniProt Q7L8W6) | inactive: -0.016 | inactive: 0.029 | inactive: -0.018 | inactive: 0.001 | inactive: -0.032 | inactive: 0.027 | inactive: 0 | inactive: -0.031 | inactive: -0.015 | inactive: -0.01
11 | EFTUD2 (UniProt Q15029) | inactive: 0.011 | inactive: -0.006 | inactive: 0.007 | inactive: 0.016 | inactive: -0.008 | inactive: -0.011 | inactive: -0.004 | inactive: 0 | inactive: -0.006 | inactive: 0.005
12 | DTWD2 (UniProt Q8NBA8) | inactive: -0.009 | inactive: 0.026 | inactive: 0.085 | inactive: -0.024 | inactive: -0.107 | inactive: 0.087 | – | inactive: 0.005 | inactive: 0.013 | inactive: -0.038
13 | EEA1 (UniProt Q15075) | inactive: -0.003 | inactive: -0.007 | inactive: -0.014 | inactive: -0.025 | inactive: -0.022 | inactive: -0.014 | inactive: -0.012 | inactive: -0.005 | inactive: -0.001 | inactive: -0.009
14 | DTYMK (UniProt P23919) | inactive: 0.027 | inactive: -0.018 | inactive: 0.049 | inactive: -0.015 | inactive: 0.023 | inactive: -0.035 | inactive: -0.005 | inactive: -0.017 | inactive: 0.038 | inactive: -0.002
15 | EIF2A (UniProt Q9BY44) | inactive: 0.009 | inactive: -0.017 | inactive: -0.017 | inactive: -0.018 | inactive: 0.008 | inactive: -0.016 | inactive: -0.007 | inactive: 0.037 | inactive: 0.002 | inactive: 0.012
16 | DRG1 (UniProt Q9Y295) | inactive: -0.005 | inactive: 0.001 | inactive: -0.013 | inactive: 0.007 | inactive: -0.011 | inactive: -0.038 | inactive: -0.024 | inactive: -0.016 | inactive: -0.018 | inactive: 0.012
17 | DYNC2H1 isoform 2 (UniProt Q8NCM8) | inactive: 0.116 | inactive: -0.05 | inactive: 0.019 | inactive: -0.065 | inactive: -0.02 | inactive: -0.03 | inactive: -0.078 | – | inactive: 0.059 | inactive: -0.03

Copied from the list:
Under log2 fold change [1], DTWD2 (UniProt Q8NBA8) has inactive: -0.009
Under log2 fold change [6], DYNC2H1 isoform 2 (UniProt Q8NCM8) has inactive: -0.03
Under log2 fold change [6], EEF1AKMT1 (UniProt Q8WVE0) has inactive: -0.068

Continued.

Row | Target | log2 fold change [1] | log2 fold change [2] | log2 fold change [3] | log2 fold change [4] | log2 fold change [5] | log2 fold change [6] | log2 fold change [7] | log2 fold change [8] | log2 fold change [9] | log2 fold change [10]
18 | ECD isoform 3 (UniProt O95905) | inactive: 0.049 | inactive: -0.019 | inactive: 0.043 | inactive: 0.008 | inactive: 0.019 | inactive: 0.014 | inactive: -0.006 | inactive: -0.013 | inactive: 0.034 | inactive: -0.024
19 | EGLN1 (UniProt Q9GZT9) | inactive: -0.041 | inactive: 0.007 | inactive: 0.01 | inactive: 0.072 | inactive: 0.029 | inactive: 0.013 | inactive: -0.029 | inactive: 0.013 | inactive: 0.029 | inactive: 0.038
20 | EEF1AKMT2, A0A494BZY7 | inactive: 0.035 | inactive: -0.038 | inactive: 0.009 | inactive: -0.059 | inactive: -0.001 | inactive: 0.108 | inactive: -0.033 | inactive: -0.001 | inactive: 0.038 | inactive: -0.064
21 | DYNLL1 (UniProt P63167) | inactive: 0.001 | inactive: -0.052 | inactive: 0.032 | inactive: -0.047 | inactive: 0.004 | inactive: -0.026 | inactive: -0.01 | inactive: 0.041 | inactive: -0.035 | inactive: 0.012
22 | EBAG9 isoform 2 (UniProt O00559) | inactive: 0.025 | inactive: 0.003 | inactive: 0.102 | inactive: -0.052 | inactive: 0.04 | inactive: -0.001 | inactive: -0.096 | inactive: -0.1 | inactive: 0.067 | inactive: -0.018
23 | EDC3 (UniProt Q96F86) | inactive: 0.038 | inactive: 0.016 | inactive: 0.004 | inactive: 0.001 | inactive: 0.046 | inactive: 0.039 | inactive: -0.014 | inactive: 0.009 | inactive: 0.019 | inactive: -0.023
24 | EI24 (UniProt O14681) | inactive: -0.009 | inactive: 0.04 | inactive: -0.069 | inactive: 0 | inactive: 0.009 | inactive: 0.046 | inactive: 0.03 | inactive: -0.007 | inactive: 0.041 | inactive: 0.006
25 | DYNC1H1 (UniProt Q14204) | inactive: -0.012 | inactive: -0.006 | inactive: 0.015 | inactive: 0.003 | inactive: 0.002 | inactive: 0.001 | inactive: 0.017 | inactive: -0.006 | inactive: 0.031 | inactive: 0.023
26 | DYRK1A (UniProt Q13627) | inactive: -0.019 | active: 0.264 | inactive: -0.003 | inactive: 0.011 | inactive: 0.01 | inactive: 0.007 | inactive: 0.005 | inactive: -0.007 | inactive: -0.024 | inactive: 0.034
27 | ECT2 (UniProt Q9H8V3) | inactive: 0.053 | inactive: -0.058 | inactive: -0.065 | inactive: 0.023 | inactive: -0.074 | inactive: -0.046 | inactive: -0.015 | inactive: 0.142 | inactive: 0.056 | inactive: -0.097
28 | DSN1 (UniProt Q9H410) | inactive: -0.004 | inactive: -0.023 | inactive: 0.011 | inactive: 0.001 | inactive: -0.015 | inactive: 0.024 | inactive: -0.018 | inactive: 0.017 | inactive: 0.025 | inactive: -0.011
29 | DYNC1I2 isoform 5 (UniProt Q13409) | inactive: 0.022 | inactive: -0.021 | inactive: 0 | inactive: -0.014 | inactive: 0.004 | inactive: 0.012 | inactive: -0.007 | inactive: -0.012 | inactive: 0.008 | inactive: -0.003
30 | DPP7 (UniProt Q9UHL4) | inactive: -0.006 | inactive: 0.013 | inactive: 0.014 | inactive: -0.019 | inactive: -0.038 | inactive: 0.011 | inactive: -0.044 | inactive: -0.013 | inactive: -0.008 | inactive: -0.011
31 | DSTN (UniProt P60981) | inactive: -0.011 | inactive: -0.013 | inactive: -0.004 | inactive: 0.038 | inactive: -0.006 | inactive: -0.001 | inactive: 0.045 | inactive: -0.005 | inactive: -0.012 | inactive: -0.003
32 | DUSP13 isoform 4 (UniProt Q9UII6) | – | – | – | – | inactive: -0.127 | – | – | – | – | –
33 | DPH3 (UniProt Q96FX2) | inactive: 0.248 | – | – | – | – | – | inactive: -0.014 | inactive: 0.25 | – | –

Only log2 fold change [7] and log2 fold change [10], for some of the entries so far:
Row,Target,log2 fold change [7],log2 fold change [10]
19,EGLN1 (UniProt Q9GZT9),inactive: -0.029,inactive: 0.038
31,DSTN (UniProt P60981),inactive: 0.045,inactive: -0.003
